# Experimental data: the supplement of paper PMC10338343
# ± gives the standard deviation. The list shows a part of the results, in another mix than the full data. Many entries were measured with a wide error. This is one part of the list.
# Experiments:
# [1] = tested on: MIWI (PIWIL1) piRISC loaded with L1MC piRNA (30 nt); assay: pre-steady-state target cleavage rate (min^-1); higher = faster piRNA-guided slicing of the target; settings: guide: L1MC piRNA 5'p-UAACUAAAUACUAUGCAAGCUGUAGGUCCU
# How it was run: (§1)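 With or without 500 nM GTSF1 partner protein, 1 nM active affinity-purified piRISC carrying one synthetic guide was mixed with 0.1 nM transcribed, DNA-blocked target RNA library in HEPES–potassium acetate buffer at 33 °C for 0–8 or 0–960 min. Uncleaved targets were sequenced and normalised to depth and to weakly complementary targets, three trials were pooled, and k3 was capped at 0.0001 min^-1. The pre-steady-state cleavage rate came from a burst-and-steady-state fit.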
# [2] = tested on: EfPiwi piRISC loaded with L1MC piRNA (26 nt); assay: pre-steady-state target cleavage rate (min^-1); guide: L1MC piRNA 5'p-UAACUAAAUACUAUGCAAGCUGUAGG; MIWI and MILI are mouse PIWI proteins and EfPiwi is from a freshwater sponge; tags in brackets are library labels; higher = faster piRNA-guided slicing of the target
# How it was run: as §1
# [3] = auxiliary factor: none (no GTSF1)
# [4] = auxiliary factor: 500 nM Ephydatia muelleri Gtsf1
# [5] = auxiliary factor: none (no Gtsf1)
Sequence,"pre-steady-state target cleavage rate [1, 3]","pre-steady-state target cleavage rate [2, 4]","pre-steady-state target cleavage rate [2, 5]",pre-steady-state target cleavage rate ([1]; auxiliary factor: 500 nM mouse GTSF1)
UCCUGGUACAGCUUGCAUAGUAUAUACAAA,0.00144 ± 0.0064,0.00182 ± 0.003,0.000262 ± 0.03,–
UCCUGGAUGUCGAAGGUAAGUAUUUAGUUA,0.000391 ± 0.017,0.000162 ± 0.021,0.000151 ± 0.052,–
UCCUCCUACAGCUUGCAUAGUAUUAAGAAA,0.00175 ± 0.0035,0.0051 ± 0.0031,0.000467 ± 0.012,–
UCCUGGAUGUCGAUGCAAAGUAUUUAGAUA,0.000517 ± 0.012,0.000228 ± 0.017,0.000517 ± 0.016,–
UCCUGGAUGUGCAUGCAUAGUUUUUAGUUA,0.00341 ± 0.0036,0.000601 ± 0.0062,0.000759 ± 0.013,–
UCCUCCUACAGCUUGCAUAGUAUAAAGAAA,0.000649 ± 0.0036,0.00289 ± 0.0018,0.000552 ± 0.014,–
UCCUGGAUGUCGAAGCAUAGUAUCUAGUUA,0.000922 ± 0.0061,0.00129 ± 0.0053,0.000241 ± 0.027,–
UCCUGGUACAGCUUCGUUAGUAUUUAGUUA,0.00223 ± 0.0033,0.000898 ± 0.0069,0.000546 ± 0.016,–
UCCUGGAUGUCGAUGCAUAGAUUUAGUUA,0.0012 ± 0.0054,0.000174 ± 0.019,0.000266 ± 0.017,–
UCCUGGUACAGCUUGCAUAGUAUUUAUUA,0.00116 ± 0.0073,0.00326 ± 0.0038,0.000928 ± 0.014,–
UCCUGGAUGUCGAACGUAAGGUAUUUAGUUA,0.000311 ± 0.019,0.000102 ± 0.03,0.00015 ± 0.033,–
UCCUGGAUGACCAUGCAUAGUAUUUAGUUA,0.00102 ± 0.0043,0.00488 ± 0.0028,0.000373 ± 0.032,–
UCCUGGAUGUCCUUGCAGAGUAUUUAGUUA,–,0.000448 ± 0.011,0.000224 ± 0.029,0.00362 ± 0.0046
UCCUGGAUGUCGAACGUAAUGUAUUUAGUUA,0.000156 ± 0.026,0.000221 ± 0.026,< 0.0001,–
UCCUGGAUGUCGUUGCAAAGUAUUUAGUUA,0.00196 ± 0.0032,0.00141 ± 0.0053,0.00013 ± 0.072,–
UCCUGCUACAGCUACGAUAGUAUUUAGUUA,0.00159 ± 0.0029,0.0028 ± 0.0031,0.000882 ± 0.0061,–
UCCUCCUACAGCUUGCUAAGUAUUUACAAA,0.000447 ± 0.0091,0.00134 ± 0.0059,0.00047 ± 0.0095,–
UCCUGGAUCAGGAAGCAUAGUAUUUUCAAA,0.000203 ± 0.014,0.000279 ± 0.011,< 0.0001,–

# Look-ups from the list.
# pre-steady-state target cleavage rate [2, 4], UCCUCCUACAGCUUGCAUAGUAUAAAGAAA is entered as 0.00289 ± 0.0018
# pre-steady-state target cleavage rate [1, 3], UCCUGGAUGUCGAUGCAUAGAUUUAGUUA is entered as 0.0012 ± 0.0054
